Reference: paper PMC9947007
No constants are given. Whether binding was seen depends on the method and setting. In cells and extracts the contact can be indirect. Some results given as binding are weak or reduced against the parent protein; the word gives no strength.

Sequences of proteins named here, by UniProt entry; tags and fusion partners are left off.
UniProt Q07832: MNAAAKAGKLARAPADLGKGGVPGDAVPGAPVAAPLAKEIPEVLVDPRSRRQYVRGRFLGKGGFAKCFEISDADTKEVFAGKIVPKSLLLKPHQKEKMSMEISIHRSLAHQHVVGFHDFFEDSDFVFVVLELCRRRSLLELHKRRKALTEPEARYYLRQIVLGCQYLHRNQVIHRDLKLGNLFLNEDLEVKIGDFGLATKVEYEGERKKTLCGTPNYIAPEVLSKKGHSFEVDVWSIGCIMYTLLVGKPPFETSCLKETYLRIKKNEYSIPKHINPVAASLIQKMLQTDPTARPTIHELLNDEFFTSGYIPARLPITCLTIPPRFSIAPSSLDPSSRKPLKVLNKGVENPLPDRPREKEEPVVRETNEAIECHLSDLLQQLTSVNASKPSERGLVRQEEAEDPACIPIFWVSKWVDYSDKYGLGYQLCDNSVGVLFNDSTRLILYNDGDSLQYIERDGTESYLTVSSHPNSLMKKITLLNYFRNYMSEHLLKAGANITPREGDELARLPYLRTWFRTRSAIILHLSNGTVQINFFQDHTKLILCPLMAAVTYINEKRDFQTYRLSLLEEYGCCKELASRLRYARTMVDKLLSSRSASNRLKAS
UniProt Q8CIN4: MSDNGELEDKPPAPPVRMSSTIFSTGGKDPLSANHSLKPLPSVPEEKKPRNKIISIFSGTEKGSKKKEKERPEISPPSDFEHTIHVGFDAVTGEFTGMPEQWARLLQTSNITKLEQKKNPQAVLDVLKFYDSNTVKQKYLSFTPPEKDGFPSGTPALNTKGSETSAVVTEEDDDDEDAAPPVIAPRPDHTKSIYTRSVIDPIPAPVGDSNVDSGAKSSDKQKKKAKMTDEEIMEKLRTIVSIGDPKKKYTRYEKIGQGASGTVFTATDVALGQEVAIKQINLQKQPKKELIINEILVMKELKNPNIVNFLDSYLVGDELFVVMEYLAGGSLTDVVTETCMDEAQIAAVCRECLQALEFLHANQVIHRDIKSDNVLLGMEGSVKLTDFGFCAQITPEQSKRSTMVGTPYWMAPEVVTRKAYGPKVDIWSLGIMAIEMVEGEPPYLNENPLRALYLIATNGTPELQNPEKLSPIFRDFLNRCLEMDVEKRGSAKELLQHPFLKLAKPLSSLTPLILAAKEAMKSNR

Columns and labels:
[1] = biological target: polo-like kinase (PLK1) (mouse (endogenous in oocytes)) (UniProt Q07832); test: co-IP; 1500-2000 MI oocytes lysed in RIPA buffer with phosphatase inhibitors; supernatant incubated with anti-PAK2 or anti-PLK1 antibody (or IgG control) overnight at 4 °C, then protein G beads; eluates blotted for PAK2 and PLK1
[2] = biological target: polo-like kinase (PLK1) (mouse (endogenous in oocytes)) (UniProt Q07832); test: proximity ligation; in situ PLA (Duolink Red Starter Kit Mouse/Rabbit) on fixed MI-stage mouse oocytes with anti-PAK2 and anti-PLK1 antibodies; oocytes injected with Pak2-siRNA as negative control; confocal microscopy
[3] = biological target: p21-activated kinase 2 (PAK2) (mouse (endogenous in oocytes)) (UniProt Q8CIN4); test: co-IP; 1500-2000 MI oocytes lysed in RIPA buffer with phosphatase inhibitors; supernatant incubated with anti-PAK2 or anti-PLK1 antibody (or IgG control) overnight at 4 °C, then protein G beads; eluates blotted for PAK2 and PLK1

In the case of “p21-activated kinase 2 (PAK2) (from UniProt Q8CIN4 1-524)”, the binding [1] is reported as “binds” and the binding [2] is reported as “binds”.
In the case of “polo-like kinase (PLK1) (from UniProt Q07832 1-603)”, the binding [3] is reported as “binds”.
